Laboratory results reported in ChEMBL document CHEMBL4808148, “HDAC6 screening dataset using tau-based substrate in an enzymatic assay yields selective inhibitors and activators” (2021).
This list holds what a sample rich in strong results left over.

The compounds below were run against T1, Protein deacetylase HDAC6 (Homo sapiens) (UniProt Q9UBN7). Details: at 10 µM.
T1 sequence (whole entry): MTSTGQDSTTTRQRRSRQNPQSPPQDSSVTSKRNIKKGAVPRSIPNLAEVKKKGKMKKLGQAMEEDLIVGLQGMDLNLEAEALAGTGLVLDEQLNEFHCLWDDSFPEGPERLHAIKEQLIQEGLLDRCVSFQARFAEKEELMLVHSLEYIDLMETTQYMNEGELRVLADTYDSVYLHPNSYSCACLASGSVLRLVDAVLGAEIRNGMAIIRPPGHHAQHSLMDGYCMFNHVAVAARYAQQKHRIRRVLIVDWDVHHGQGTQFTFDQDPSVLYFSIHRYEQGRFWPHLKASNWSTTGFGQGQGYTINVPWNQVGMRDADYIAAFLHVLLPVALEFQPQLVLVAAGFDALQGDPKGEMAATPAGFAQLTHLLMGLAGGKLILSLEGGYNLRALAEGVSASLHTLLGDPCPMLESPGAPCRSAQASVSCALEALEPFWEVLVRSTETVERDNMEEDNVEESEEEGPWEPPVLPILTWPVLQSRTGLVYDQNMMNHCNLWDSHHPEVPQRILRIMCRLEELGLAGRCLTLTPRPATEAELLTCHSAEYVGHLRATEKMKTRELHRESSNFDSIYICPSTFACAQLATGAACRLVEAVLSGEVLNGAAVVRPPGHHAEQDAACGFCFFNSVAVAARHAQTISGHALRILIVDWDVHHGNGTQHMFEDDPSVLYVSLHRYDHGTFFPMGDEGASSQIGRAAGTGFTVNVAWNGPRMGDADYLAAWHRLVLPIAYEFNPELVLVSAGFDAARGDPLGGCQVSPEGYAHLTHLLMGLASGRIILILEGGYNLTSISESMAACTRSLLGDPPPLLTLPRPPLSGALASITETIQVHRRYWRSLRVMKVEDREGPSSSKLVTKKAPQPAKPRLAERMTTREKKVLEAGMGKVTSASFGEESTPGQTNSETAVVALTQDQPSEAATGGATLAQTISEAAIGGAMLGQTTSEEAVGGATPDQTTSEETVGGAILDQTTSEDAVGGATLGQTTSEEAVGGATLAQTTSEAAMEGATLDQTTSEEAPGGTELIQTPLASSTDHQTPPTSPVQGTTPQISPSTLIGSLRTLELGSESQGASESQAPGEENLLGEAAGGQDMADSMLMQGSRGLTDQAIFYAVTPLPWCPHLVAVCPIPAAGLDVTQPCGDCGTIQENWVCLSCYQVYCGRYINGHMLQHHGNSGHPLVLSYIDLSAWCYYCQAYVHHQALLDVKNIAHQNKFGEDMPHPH

Row | SMILES | inhibition [%]
1 | Cc1ccc(C(=O)NCCCCCC(=O)Nc2ccccc2N)cc1 | 30.7
2 | O=C1NC(=O)c2c1c(-c1ccccc1)cc1[nH]c3ccc(O)cc3c21 | 23.8
3 | COC(=O)[C@H](CCCNC(=N)N)NS(=O)(=O)c1ccc(C)cc1 | 4.53
